This is an account of results in paper PMC7334207.

Sequences of proteins named here, by UniProt entry; tags and fusion partners are left off. Residues count along the entry.
UniProt Q8WYQ5, 285-750 W461A/A462G/E463Q: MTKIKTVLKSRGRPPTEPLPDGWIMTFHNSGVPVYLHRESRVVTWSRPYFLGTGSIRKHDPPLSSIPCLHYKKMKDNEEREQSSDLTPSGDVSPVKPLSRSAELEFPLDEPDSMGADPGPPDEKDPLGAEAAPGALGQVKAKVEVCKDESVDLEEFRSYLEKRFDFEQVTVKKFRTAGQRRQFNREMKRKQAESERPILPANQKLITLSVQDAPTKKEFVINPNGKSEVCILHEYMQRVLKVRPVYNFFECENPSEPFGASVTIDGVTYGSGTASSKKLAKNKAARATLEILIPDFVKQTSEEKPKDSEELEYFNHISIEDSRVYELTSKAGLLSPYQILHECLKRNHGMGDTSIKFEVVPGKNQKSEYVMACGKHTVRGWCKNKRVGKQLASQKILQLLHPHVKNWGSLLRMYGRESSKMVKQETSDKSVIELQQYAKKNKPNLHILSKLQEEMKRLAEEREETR
UniProt Q8WYQ5, 285-478: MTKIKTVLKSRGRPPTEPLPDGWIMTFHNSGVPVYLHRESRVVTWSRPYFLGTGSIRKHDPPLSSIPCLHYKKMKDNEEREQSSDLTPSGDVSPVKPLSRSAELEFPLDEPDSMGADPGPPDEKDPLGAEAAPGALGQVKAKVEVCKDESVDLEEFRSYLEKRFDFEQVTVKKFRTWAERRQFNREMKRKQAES
UniProt Q8WYQ5, 285-750: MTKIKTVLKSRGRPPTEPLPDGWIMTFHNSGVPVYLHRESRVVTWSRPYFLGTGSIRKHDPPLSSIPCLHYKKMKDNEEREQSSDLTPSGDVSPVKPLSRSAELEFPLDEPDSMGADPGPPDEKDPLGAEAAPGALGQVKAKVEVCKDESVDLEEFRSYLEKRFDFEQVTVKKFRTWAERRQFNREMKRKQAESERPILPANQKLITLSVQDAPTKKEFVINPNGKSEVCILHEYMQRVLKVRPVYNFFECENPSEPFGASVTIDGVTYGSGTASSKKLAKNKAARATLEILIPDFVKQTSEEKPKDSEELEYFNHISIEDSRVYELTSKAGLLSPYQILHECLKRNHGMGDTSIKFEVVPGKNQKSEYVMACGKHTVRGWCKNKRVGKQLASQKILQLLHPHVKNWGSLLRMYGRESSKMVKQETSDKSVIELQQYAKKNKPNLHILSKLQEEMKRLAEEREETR

For at least one entry, the source does not settle the construct or the ends of the probe. For some of these results: Weaker means in comparison with the reference protein, sequence or condition of that experiment.

What all share (assay): EMSA
On the technique in general: In EMSA bound probe runs differently from free probe, usually more slowly.

Data set [1] has as its system G4 WT-mut1 hybrid dimer W461A,A462G,E463Q (Homo sapiens). To be noted: 1-2.5 uM protein, similar to WT-WT; 50 mM Tris-HCl pH 7.5, 250 mM NaCl, 10% glycerol, 0.2 mg/ml BSA, 1 mM DTT, 2 mM EDTA; 1 uM RNA in 10 uL; on ice 60 min; 4% native PAGE at 4 C, ethidium bromide stain; recombinant protein; probe letters rebuilt from the primers and the genome.
For data set [2], the target named is G4 mut1-mut1 W461A,A462G,E463Q (Homo sapiens) (UniProt Q8WYQ5). To be noted: 1-2.5 uM protein; 50 mM Tris-HCl pH 7.5, 250 mM NaCl, 10% glycerol, 0.2 mg/ml BSA, 1 mM DTT, 2 mM EDTA; 1 uM RNA in 10 uL; on ice 60 min; 4% native PAGE at 4 C, ethidium bromide stain; recombinant protein; residues 285-750; protein details: N-terminal GFP and 10xHis (as G4); probe letters rebuilt from the primers and the genome.

The target in data set [3] is G478 (Rhed) (Homo sapiens) (UniProt Q8WYQ5). To be noted: 50 mM Tris-HCl pH 7.5, 250 mM NaCl, 10% glycerol, 0.2 mg/ml BSA, 1 mM DTT, 2 mM EDTA; 1 uM RNA in 10 uL; on ice 60 min; 4% native PAGE at 4 C, ethidium bromide stain; recombinant protein; residues 285-478; probe letters rebuilt from the primers and the genome.
For another data set, the target named is G4 WT-WT (Homo sapiens) (UniProt Q8WYQ5). Conditions: 0-2.5 uM protein; 50 mM Tris-HCl pH 7.5, 250 mM NaCl, 10% glycerol, 0.2 mg/ml BSA, 1 mM DTT, 2 mM EDTA; 1 uM RNA in 10 uL; on ice 60 min; 4% native PAGE at 4 C, ethidium bromide stain; recombinant protein; residues 285-750; protein details: N-terminal GFP and 10xHis; probe letters rebuilt from the primers and the genome.

As for “GGGUAUUGCUGUUGACAGUGAGCGACUGUAAACAUCCUCGACUGGAAGCUGUGAAGCCACAGAUGGGCUUUCAGUCGGAUGUUUGCAGCUGCCUACUGCCUCGGACUUCA [pri-mir-30a_UGU (WT)]”, the binding result in data set [1] is given as “binds”; in data set [2], “binds more weakly”; in data set [3], “binds”; with G4 WT-WT (Homo sapiens) it was “binds”.
